Hit rate of the full screen: of about 330,000 compounds, about 7,700 (2.3%) were called active. The shares of active, inactive and inconclusive entries below differ from those in the screen. Calls come from the whole dose curve; as a rule, active = well fitted inhibition curve with a large enough effect; inconclusive = small, poorly fitted or top-dose-only effect, or effect the other way; inactive = flat fitted curve, though single readings scatter. A potency beside an inconclusive call is a rough fit, not a confirmed value.
Assay: qHTS screen for small molecules that inhibit ELG1-dependent DNA repair in human embryonic kidney (HEK293T) cells expressing luciferase-tagged ELG1; note: nearly all actives have a fitted effect of over 55% in size
Conditions: HEK293T ELG1-luciferase reporter, luminescence, 16 h, DNA damage induced by 5-fluorouridine; activity change, negative = inhibition: at 46.1 µM (top of the series)
Method in brief: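 Cells (2,000 per well) received 5-fluorouridine plus test compound or DMSO and were incubated 16 hr at 37 °C, 5% CO2. Luciferase activity was read by luminescence 30 min after ONE-Glo addition; signal suppression marked inhibition of damage-induced ELG1 function.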
% is set by controls: 0 for no effect and ±100 for the full control effect; potency is the fitted concentration of half-maximal effect.

SMILES	Potency	activity change, negative = inhibition
Cc1ccc(Cl)c(OCC(=O)Nc2cc(S(=O)(=O)N3CCOCC3)ccc2N2CCCC2)c1	inconclusive: 25.9 µM [inhibitor, single point]	
O=C(Cc1cccs1)NNC(=O)c1ccc(F)cc1		inactive: 26.7%
O=C(C1CCN(c2ccc(N3CCOCC3)nn2)CC1)N1CCN(c2ccc(F)cc2)CC1	active: 16.4 µM	
Cc1nc2ccccc2cc1C(=O)NCc1ccc(F)cc1	inconclusive: 29.1 µM [inhibitor, single point]	
COC(=O)NC(NC(=S)Nc1ccc([N+](=O)[O-])cc1)C(Cl)(Cl)Cl (stereo not drawn)	inconclusive: 23.1 µM [inhibitor, partial curve]	
Cc1ccccc1C(=O)Oc1ccc(-c2csnn2)cc1	inconclusive: 18.3 µM [activator, partial curve]	
C/C(=N\NC(=O)c1nnn(-c2nonc2N)c1-c1ccc2c(c1)OCO2)c1ccccc1	inconclusive: 29.1 µM [activator, single point]	
CN(C)c1ccc(N=Nc2cccc(F)c2)cc1	inconclusive: 16.4 µM [activator, partial curve]	
COc1cc2[nH]c(=S)nc(NCc3ccccc3)c2cc1OC		inactive: -8.63%
O=C(Nc1cc(S(=O)(=O)N2CCCCCC2)ccc1OCC(F)(F)F)c1cnccn1	inconclusive: 3.26 µM [inhibitor, single point]	
O=C(c1cccs1)N1CCCC(c2nc(-c3ccc(F)cc3)no2)C1 (stereo not drawn)	inconclusive: 20.6 µM [activator, single point]	
CC(NC(=O)CCN1C(=O)c2ccccc2C1=O)c1ccccc1 (stereo not drawn)		inactive: -0.666%
Fc1cccc(Cl)c1/C=N/Nc1c(Cl)cncc1Cl	inconclusive: 11.6 µM [inhibitor, partial curve, poor fit]	
CCCCc1cc(=O)oc2cc(OCC(=O)Nc3ccccn3)ccc12	inconclusive: 20.6 µM [activator, partial curve]	
COc1ccc(C)cc1NC(=O)Nc1cccc(C)c1		inactive: -4.62%
O=C1/C(=C\Nc2ccccc2)CCN1c1ncccn1	inconclusive: 11.6 µM [activator, partial curve]	
CN(Cc1cccs1)C(=O)CNC(=O)c1ccco1	inconclusive: 16.4 µM [activator, partial curve]	
CC(/C=N/NC(=O)c1cc(-c2ccccc2)nc2ccccc12)=C\c1ccco1	inconclusive: 6.51 µM [inhibitor, partial curve, poor fit]	
CCOC(=O)N1CCC(N(CCN(C)C)C(=S)Nc2cccc(OC)c2)CC1	inconclusive: 3.26 µM [activator, single point]	
N#CCCN(C(=O)COc1ccc(C#N)cc1)c1ccc(F)cc1		inactive: -7.12%
CCOc1ccc(N=C2Sc3nc4ccc(C)cc4cc3CN2CCOC)cc1	inconclusive: 23.1 µM [inhibitor, single point]	
O=C(O)c1sccc1S(=O)(=O)N1CCOCC1	inconclusive: 35.5 µM [activator, single point]	
CCOc1ccc(NC(=S)NCc2ccc3c(c2)OCO3)cc1		inactive: -0.319%
O=C(Nc1cccnc1)OCc1ccccc1	inconclusive: 32.6 µM [activator, single point]	

SMILES	Potency	activity change, negative = inhibition
CC1CN(C(=O)c2cccc(COc3ccc(Br)cc3)c2)CC(C)O1 (stereo not drawn)	inconclusive: 4.11 µM [activator, full curve]	
COc1ccc(/C=N\NC(=O)c2ccccc2OC)cc1COc1c(F)c(F)c(F)c(F)c1F	inconclusive: 29.1 µM [inhibitor, single point]	
Nc1ccc(-c2nc3ccccc3o2)cc1	inconclusive: 5.17 µM [activator, partial curve]	
Cc1cc(N/C=C\C(=O)c2ccc(Cl)c(Cl)c2)no1	inconclusive: 18.4 µM [activator, partial curve]	
COc1ccc(C2=NN(S(=O)(=O)c3ccccc3)C(c3ccccc3)C2)cc1 (stereo not drawn)		inactive: -23.9%
COc1ccc(NC(=O)CCSc2ccc(C)cc2)cc1S(=O)(=O)Nc1ccccc1Cl	inconclusive: 25.9 µM [inhibitor, single point]	
CCOC(=O)Cn1cc(C(=O)OC)c2ccccc21	inconclusive: 16.4 µM [activator, single point]	
Cc1cc2nn(-c3ccccc3)nc2cc1NC(=O)c1cccs1	inconclusive: 16.4 µM [activator, partial curve]	
COc1ccc(-c2cc3c(=O)n(CC(=O)NCc4cccnc4)nc(C)n3n2)cc1		inactive: 25.9%
O=C(N/N=C/C(Br)=C/c1ccccc1)C(O)c1ccccc1 (stereo not drawn)	inconclusive: 16.4 µM [activator, single point]	
COc1ccc(O)c(N)c1		inactive: -16.7%
CCOc1ccccc1NC(=O)c1ccc(C(=O)Nc2ccccc2OCC)nc1		inconclusive: 58.9% [activator]
Cc1ccc(-c2noc(C3CCCN(C(=O)c4c(F)cccc4F)C3)n2)cc1 (stereo not drawn)	inconclusive: 18.4 µM [inhibitor, partial curve, poor fit]	
COc1ccc(C2=C/C(=C\c3ccccc3OC(C)=O)C(=O)O2)cc1		inactive: 0%
CCOc1cc(/C=N/Nc2nc(Nc3ccccc3)nc(N3CCCCC3)n2)ccc1OCC(=O)O		inactive: 11.7%
Cn1c2ccccc2c2c(=O)oc3ccccc3c21	inconclusive: 10.3 µM [activator, partial curve]	
Cc1onc(-c2ccccc2)c1C(=O)NCCc1ccc(Cl)cc1		inactive: -6.45%
O=C(Cc1ccc(Br)cc1)N1CCc2ccccc2C1	inconclusive: 18.3 µM [activator, partial curve]	
COc1ccc(-c2nc3cnccn3c2NCc2ccccc2)cc1SC1CCCCC1	inconclusive: 35.5 µM [inhibitor, single point]	
CCOc1ccc(C2CC(=O)NC2=O)cc1 (stereo not drawn)		inactive: 13.6%
Cc1cc(C)n(CC(C)NCc2cn[nH]c2-c2cccc3ccccc23)n1 (stereo not drawn)		inactive: 3.71%
Cc1sc2nc(CN(C(=O)NC3CCCCC3)C3CCCC3)[nH]c(=O)c2c1C	active: 20.6 µM	
CCNc1nc(NCC)nc(N(C)/N=C/c2ccco2)n1		inactive: -2.59%
S=C(Nc1ccccc1)N1CCn2c1nc1ccccc12		inactive: -1.82%

Part of the list above in order of molecular weight, largest number first.
SMILES	Potency	activity change, negative = inhibition
Cc1sc2nc(CN(C(=O)NC3CCCCC3)C3CCCC3)[nH]c(=O)c2c1C	active: 20.6 µM	
Cc1cc(C)n(CC(C)NCc2cn[nH]c2-c2cccc3ccccc23)n1 (stereo not drawn)		inactive: 3.71%
Cc1cc(N/C=C\C(=O)c2ccc(Cl)c(Cl)c2)no1	inconclusive: 18.4 µM [activator, partial curve]	

— PubChem BioAssay AID504467 (National Center for Advancing Translational Sciences (NCATS), 2011)
